Assay results as given in patent US20060021091, “Maize bZIP transcription factors and genes encoding the same and use thereof” (published 2006).
No signal at the amounts used counts as a negative. Tags and fusion partners may be left off the protein sequences shown.

What was measured:
Test in all cases: one hybrid
Conditions in all cases: protein in cells, label: 32P 5' end (EMSA)
[1] = system: T1, ABP2 (in cells) (Zea mays)
T1 sequence: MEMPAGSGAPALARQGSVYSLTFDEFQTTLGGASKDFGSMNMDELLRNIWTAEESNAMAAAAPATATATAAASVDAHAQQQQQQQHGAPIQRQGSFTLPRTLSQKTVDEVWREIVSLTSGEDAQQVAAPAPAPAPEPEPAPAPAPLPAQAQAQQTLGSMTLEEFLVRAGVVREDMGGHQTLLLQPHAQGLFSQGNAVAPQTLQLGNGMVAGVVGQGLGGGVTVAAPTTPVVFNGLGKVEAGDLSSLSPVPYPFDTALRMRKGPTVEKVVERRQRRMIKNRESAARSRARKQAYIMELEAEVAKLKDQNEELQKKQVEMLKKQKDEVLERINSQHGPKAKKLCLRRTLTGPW

[2] = system: T2, ABP9 (in cells) (Zea mays)
T2 sequence: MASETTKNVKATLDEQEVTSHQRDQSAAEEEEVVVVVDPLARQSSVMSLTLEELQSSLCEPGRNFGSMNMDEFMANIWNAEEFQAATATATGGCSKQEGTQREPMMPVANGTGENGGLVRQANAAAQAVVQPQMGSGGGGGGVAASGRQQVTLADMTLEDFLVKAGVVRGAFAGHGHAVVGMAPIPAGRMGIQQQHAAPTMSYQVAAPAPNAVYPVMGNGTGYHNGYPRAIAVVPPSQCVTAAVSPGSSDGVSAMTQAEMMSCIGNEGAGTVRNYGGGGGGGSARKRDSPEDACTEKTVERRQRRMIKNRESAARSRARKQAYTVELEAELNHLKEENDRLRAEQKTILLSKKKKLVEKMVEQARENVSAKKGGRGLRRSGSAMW

[3] = system: T3, ABP4 (in cells) (Zea mays)
T3 sequence: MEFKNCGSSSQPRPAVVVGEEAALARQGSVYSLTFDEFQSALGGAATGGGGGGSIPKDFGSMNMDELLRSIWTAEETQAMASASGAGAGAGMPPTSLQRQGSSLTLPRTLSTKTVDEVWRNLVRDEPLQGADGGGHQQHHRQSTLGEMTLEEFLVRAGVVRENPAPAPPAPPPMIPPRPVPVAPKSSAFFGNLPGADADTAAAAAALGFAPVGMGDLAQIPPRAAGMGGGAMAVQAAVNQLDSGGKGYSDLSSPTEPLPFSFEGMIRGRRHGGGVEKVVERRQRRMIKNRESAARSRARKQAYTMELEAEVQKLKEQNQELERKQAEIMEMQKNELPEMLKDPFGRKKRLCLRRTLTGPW

[4] = 4mer mABRE HIS3 reporter, no growth, variant of ABRE
[5] = 4mer ABRE HIS3 reporter yeast grows on His-, also activates reporter in maize cells (FIG. 4)

Sequence: GAAGTAACATGTTCGGTGG / TCCCACCGAACATGTTACT [mABRE]
- activity on this sequence [1, 4]: not active
- activity on this sequence [2, 4]: not active
- activity on this sequence [3, 4]: not active

Sequence: GAAGTCCACGTGGAGGTGG / TCCCACCTCCACGTGGACT [ABRE]
- activity on this sequence [1, 5]: active
- activity on this sequence [2, 5]: active
- activity on this sequence [3, 5]: active
